# Assay results taken from PubChem BioAssay (EPA / NIEHS).
# Sequences of proteins named here, by UniProt entry; tags and fusion partners are left off. A change or cut given only in a name is not applied to a line headed by its entry.
# UniProt P03372, whole entry, looked up: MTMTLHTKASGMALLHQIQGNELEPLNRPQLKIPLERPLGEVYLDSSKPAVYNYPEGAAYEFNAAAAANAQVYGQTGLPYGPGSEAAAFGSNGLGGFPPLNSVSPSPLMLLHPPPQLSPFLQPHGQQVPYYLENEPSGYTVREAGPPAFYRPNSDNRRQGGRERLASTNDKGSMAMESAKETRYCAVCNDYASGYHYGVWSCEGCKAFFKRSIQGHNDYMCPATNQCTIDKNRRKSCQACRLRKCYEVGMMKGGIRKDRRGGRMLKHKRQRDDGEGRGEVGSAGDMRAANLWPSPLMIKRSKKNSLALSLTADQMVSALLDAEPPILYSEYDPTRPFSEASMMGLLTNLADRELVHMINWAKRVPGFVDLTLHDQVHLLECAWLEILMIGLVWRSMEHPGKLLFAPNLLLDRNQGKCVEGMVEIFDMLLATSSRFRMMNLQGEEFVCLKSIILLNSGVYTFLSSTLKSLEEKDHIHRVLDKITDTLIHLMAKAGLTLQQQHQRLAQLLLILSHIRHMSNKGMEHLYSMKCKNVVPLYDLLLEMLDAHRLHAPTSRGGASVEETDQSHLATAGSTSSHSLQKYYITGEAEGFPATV
# UniProt Q96RI1: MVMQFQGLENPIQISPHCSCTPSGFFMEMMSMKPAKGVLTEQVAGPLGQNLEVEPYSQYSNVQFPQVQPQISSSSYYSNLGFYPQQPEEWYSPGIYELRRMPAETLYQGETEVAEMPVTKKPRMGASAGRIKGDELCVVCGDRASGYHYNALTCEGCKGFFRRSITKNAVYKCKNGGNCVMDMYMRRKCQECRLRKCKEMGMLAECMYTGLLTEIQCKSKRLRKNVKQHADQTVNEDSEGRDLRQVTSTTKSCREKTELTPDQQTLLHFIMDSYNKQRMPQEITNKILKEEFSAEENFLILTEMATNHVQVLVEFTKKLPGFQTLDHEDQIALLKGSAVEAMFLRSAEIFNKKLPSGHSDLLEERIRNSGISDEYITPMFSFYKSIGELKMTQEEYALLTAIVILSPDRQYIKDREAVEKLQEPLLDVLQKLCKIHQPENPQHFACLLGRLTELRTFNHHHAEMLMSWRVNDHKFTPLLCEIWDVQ
# UniProt P49884, whole entry, looked up: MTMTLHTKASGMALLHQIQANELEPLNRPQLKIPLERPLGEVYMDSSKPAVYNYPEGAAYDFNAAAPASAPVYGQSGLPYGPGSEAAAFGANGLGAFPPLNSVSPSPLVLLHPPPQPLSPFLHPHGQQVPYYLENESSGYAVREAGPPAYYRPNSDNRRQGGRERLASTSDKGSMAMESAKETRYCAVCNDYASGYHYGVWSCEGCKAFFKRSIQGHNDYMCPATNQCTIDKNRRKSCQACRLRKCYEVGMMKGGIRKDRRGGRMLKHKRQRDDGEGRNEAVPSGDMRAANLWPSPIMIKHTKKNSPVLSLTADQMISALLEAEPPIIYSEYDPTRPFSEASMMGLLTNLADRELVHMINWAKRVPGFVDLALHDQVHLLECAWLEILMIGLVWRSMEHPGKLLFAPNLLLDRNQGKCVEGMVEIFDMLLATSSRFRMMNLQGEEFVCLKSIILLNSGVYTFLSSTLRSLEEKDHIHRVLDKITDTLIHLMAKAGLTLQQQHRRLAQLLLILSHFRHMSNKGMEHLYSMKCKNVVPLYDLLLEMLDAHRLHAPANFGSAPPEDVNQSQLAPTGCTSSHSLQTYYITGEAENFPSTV
# UniProt Q92731, whole entry, looked up: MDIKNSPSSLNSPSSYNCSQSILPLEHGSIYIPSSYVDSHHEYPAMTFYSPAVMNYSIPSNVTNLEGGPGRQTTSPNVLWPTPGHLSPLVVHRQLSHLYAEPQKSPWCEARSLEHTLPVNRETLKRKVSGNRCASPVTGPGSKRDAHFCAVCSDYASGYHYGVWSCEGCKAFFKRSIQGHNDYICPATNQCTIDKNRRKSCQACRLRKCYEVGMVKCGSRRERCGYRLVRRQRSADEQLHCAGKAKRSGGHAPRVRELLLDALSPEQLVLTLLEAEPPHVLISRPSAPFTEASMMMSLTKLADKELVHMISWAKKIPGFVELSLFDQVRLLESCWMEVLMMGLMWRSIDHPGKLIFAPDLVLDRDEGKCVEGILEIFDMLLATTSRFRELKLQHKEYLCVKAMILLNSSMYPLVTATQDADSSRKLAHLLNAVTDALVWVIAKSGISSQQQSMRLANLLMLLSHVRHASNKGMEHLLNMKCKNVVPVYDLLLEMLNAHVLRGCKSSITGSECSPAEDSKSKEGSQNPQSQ
# UniProt P10275: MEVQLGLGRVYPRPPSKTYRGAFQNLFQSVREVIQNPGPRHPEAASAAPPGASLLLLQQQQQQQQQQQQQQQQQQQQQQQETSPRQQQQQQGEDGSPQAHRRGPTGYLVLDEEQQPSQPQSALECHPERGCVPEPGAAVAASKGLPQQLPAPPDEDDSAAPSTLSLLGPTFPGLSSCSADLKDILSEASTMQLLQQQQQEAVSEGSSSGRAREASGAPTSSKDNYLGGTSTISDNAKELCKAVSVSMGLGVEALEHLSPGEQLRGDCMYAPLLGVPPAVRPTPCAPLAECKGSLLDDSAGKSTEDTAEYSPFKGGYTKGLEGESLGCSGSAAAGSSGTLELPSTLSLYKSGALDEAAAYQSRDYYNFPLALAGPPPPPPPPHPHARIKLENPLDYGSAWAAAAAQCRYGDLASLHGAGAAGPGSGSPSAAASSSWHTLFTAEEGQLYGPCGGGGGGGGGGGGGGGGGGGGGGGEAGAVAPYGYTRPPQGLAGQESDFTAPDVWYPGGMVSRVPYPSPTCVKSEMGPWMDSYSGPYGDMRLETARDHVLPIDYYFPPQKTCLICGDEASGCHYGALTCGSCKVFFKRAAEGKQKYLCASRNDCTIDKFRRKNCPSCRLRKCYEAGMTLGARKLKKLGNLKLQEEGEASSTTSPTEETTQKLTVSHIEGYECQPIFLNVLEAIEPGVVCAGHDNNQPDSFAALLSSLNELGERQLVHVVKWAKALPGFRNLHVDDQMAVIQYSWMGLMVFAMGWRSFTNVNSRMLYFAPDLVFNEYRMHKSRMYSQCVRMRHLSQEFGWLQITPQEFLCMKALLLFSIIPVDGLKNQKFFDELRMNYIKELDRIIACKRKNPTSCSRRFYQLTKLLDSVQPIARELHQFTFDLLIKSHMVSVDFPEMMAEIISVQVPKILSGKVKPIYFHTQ
# UniProt Q07869: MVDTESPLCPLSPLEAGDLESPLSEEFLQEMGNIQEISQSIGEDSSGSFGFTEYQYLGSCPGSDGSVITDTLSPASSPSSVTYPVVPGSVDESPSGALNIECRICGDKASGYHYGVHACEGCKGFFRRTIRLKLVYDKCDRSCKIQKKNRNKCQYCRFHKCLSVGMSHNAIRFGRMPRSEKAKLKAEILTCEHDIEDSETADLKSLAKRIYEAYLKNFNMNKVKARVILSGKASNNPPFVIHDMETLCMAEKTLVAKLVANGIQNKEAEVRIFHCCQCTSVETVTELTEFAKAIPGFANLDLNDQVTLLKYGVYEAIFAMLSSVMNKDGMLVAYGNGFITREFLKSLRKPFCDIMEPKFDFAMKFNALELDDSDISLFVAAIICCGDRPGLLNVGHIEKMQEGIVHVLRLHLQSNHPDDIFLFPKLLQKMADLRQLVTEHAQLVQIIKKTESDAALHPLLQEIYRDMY
# UniProt P22199: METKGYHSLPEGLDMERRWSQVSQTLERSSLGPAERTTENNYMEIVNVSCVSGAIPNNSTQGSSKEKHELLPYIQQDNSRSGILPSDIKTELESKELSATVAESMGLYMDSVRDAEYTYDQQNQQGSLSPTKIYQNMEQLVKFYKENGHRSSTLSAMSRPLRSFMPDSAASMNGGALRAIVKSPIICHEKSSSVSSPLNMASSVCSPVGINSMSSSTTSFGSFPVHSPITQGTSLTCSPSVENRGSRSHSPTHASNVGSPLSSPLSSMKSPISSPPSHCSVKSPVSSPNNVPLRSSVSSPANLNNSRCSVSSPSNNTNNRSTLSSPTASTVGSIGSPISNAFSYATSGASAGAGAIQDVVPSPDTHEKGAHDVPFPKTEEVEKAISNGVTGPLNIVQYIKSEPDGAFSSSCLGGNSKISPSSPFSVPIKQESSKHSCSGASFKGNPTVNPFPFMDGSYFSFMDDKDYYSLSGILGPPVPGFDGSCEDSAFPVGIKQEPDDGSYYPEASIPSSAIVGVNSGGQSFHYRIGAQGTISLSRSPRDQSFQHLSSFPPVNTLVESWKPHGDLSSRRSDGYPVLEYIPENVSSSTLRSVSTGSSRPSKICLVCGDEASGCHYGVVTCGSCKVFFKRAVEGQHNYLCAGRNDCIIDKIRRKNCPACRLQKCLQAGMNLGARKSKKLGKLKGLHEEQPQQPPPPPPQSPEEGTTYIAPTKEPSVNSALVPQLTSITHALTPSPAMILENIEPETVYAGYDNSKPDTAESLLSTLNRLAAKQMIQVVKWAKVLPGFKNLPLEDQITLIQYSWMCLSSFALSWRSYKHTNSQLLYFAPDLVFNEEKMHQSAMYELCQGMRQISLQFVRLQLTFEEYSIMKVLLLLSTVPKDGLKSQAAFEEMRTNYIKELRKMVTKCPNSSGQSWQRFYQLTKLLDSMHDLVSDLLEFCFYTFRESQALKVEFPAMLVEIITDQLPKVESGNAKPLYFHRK
# Inconclusive results, whose numbers are uncertain, are shown with a selection of clear calls. For part of these data: Where the call is inconclusive, the potency comes from a doubtful curve fit. Active and inactive are the calls of the source. How the source made its calls: active means hit-call score of the fitted dose curve at least 0.9, where 1 is the maximum; inconclusive means response in the unintended direction; inactive means score below 0.9.
# How the values were obtained:
# [1] = target: Estrogen receptor (Homo sapiens) (UniProt P03372); assay: NVS_NR_hER: NovaScreen (NVS) Nuclear Receptor Binding Assay for human Estrogen Receptor (ER) (AID 2283348)
# Outline: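 Cell-free MCF7-derived ER preparation, specific radioligand displaced by test compound, read by scintillation counting 18 h post-dosing. Duplicate single-point 25 uM screen, then concentration-response confirmation; DMSO baseline.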
# [2] = target: Bile acid receptor (Homo sapiens) (UniProt Q96RI1); assay: NVS_NR_hFXR_Agonist: NovaScreen (NVS) Nuclear Receptor Binding Assay for human Farnesoid X Receptor Agonism (FXR) (AID 2283347)
# Outline: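 Agonist-mode FXR assay read by time-resolved FRET 1 h after compound addition, using isolated human receptor protein without cells. Duplicate 25 uM single-point primary screen, concentration series for confirmed actives; DMSO as baseline.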
# [3] = target: bovine Estrogen Receptor (ER), ESR1 (gene 407238) (UniProt P49884); assay: NVS_NR_bER: NovaScreen (NVS) Nuclear Receptor Binding Assay for bovine Estrogen Receptor (ER) (AID 2283345);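 further: actives lower the bound radioligand count which means they displace the ER ligand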
# Outline: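 Scintillation counting of displaced radioligand gave the readout; bovine uterine membrane extract supplied the receptor. Measured 18 h post-dose, normalized to DMSO baseline. Single 25 uM duplicate screen preceded concentration-response follow-up.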
# [4] = target: T1, Estrogen receptor (Homo sapiens) + Estrogen receptor beta (Homo sapiens) (UniProt P03372+Q92731); assay: OT_ER_ERaERb_0480: Odyssey Thera (OT) 8-hour HEK293T Protein-Complementation Assay for Estrogen Receptor-alpha/-beta Heterodimer (AID 2283352)
# Outline: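 HEK293T cells expressing ER-alpha/ER-beta LBD fusions to complementary reporter fragments were dosed with compound for 8 hours. Heterodimer formation was read as increased nuclear (agonist) or nuclear plus cytoplasmic (antagonist) mean fluorescence intensity versus DMSO vehicle.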
# [5] = target: Androgen Receptor/SRC-1 Co-activator, AR (gene 367) (UniProt P10275); assay: OT_AR_ARSRC1_0480: Odyssey Thera (OT) 8-hour HEK293T Protein-Complementation Assay for Androgen Receptor/SRC-1 Co-activator (AID 2283354);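 further: hits raise the complementation signal above DMSO so AC50 marks enhancers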
# Outline: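 Reconstituted split-Venus YFP signal from AR–SRC-1 interaction, read by imaging 8 h post-dose in stable HEK293T lines. The 488 nm nucleus-to-cytoplasm ratio (≥400 cells/image) was fitted upward against DMSO.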
# [6] = target: Estrogen receptor (Homo sapiens) (UniProt P03372); assay: OT_ER_ERaERa_0480: Odyssey Thera (OT) 8-hour HEK293T Protein-Complementation Assay for Estrogen Receptor-alpha/-alpha Homodimer (AID 2283351);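 further: rise in fluorescence from reassembled reporter fragments on ERα LBD homodimer in nucleus or whole cell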
# Outline: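 Cells were treated for 8 hours, then imaged on a laser scanning plate cytometer. Complementation of reporter fragments fused to the human ERα ligand-binding domain (residues 310-547) in HEK293T gave fluorescence, and gain of signal over vehicle was fitted.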
# [7] = target: T1, Estrogen receptor (Homo sapiens) + Estrogen receptor beta (Homo sapiens); assay: OT_ER_ERaERb_1440: Odyssey Thera (OT) 24-hour HEK293T Protein-Complementation Assay for Estrogen Receptor-alpha/-beta Homodimer (AID 2283356);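 further: heteromer of ER alpha and ER beta binding domains; hits raise reporter fluorescence and both agonists and antagonists give an increase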
# Outline: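 HEK293T cells stably expressing a PCA pair of ERα LBD (aa 310-547) and ERβ LBD (aa 263-489) were dosed for 24 h. Fluorescence intensity increase versus DMSO vehicle was fitted as gain-of-signal.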
# [8] = target: Estrogen receptor beta (Homo sapiens) (UniProt Q92731); assay: OT_ER_ERbERb_0480: Odyssey Thera (OT) 8-hour HEK293T Protein-Complementation Assay for Estrogen Receptor-beta/-beta Homodimer (AID 2283357);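 further: active means signal gain over DMSO baseline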
# Outline: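 ER-beta LBD homodimer PCA stably expressed in HEK293T; 8 h compound exposure, then formaldehyde fixation and Draq5 staining. Gain in nuclear/cytoplasmic fluorescence intensity versus DMSO vehicle, read on laser scanning cytometer.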
# [9] = target: human Peroxisome Proliferator-activated Receptor alpha (PPARa), PPARA (gene 5465) (UniProt Q07869); assay: NVS_NR_hPPARa: NovaScreen (NVS) Nuclear Receptor Binding Assay for human Peroxisome Proliferator-activated Receptor alpha (PPARa) (AID 2283359);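 further: activity means loss of TR-FRET signal versus DMSO baseline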
# Outline: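 Loss of TR-FRET binding signal relative to DMSO was measured 1 h after chemical addition to extracted receptor protein. Chemicals were first tested in duplicate at 25 uM, and actives were followed up in concentration series.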
# [10] = target: Estrogen receptor (Homo sapiens) (UniProt P03372); assay: OT_ER_ERaERa_1440: Odyssey Thera (OT) 24-hour HEK293T Protein-Complementation Assay for Estrogen Receptor-alpha/-alpha Homodimer (AID 2283349);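 further: hits raise fluorescence above DMSO for agonists and antagonists alike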
# Outline: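 HEK293T, stable ERα LBD (aa 310-547) homodimer PCA; 24 h compound exposure; mean fluorescence intensity (nuclear for agonists, nuclear plus cytoplasmic for antagonists) vs vehicle; positive fitting direction, DMSO baseline.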
# [11] = target: rat Mineralocorticoid Receptor (MR), Nr3c2 (gene 25672) (UniProt P22199); assay: NVS_NR_rMR: NovaScreen (NVS) Nuclear Receptor Binding Assay for rat Mineralocorticoid Receptor (MR) (AID 2283355)
# Outline: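 Primary HTS ran in duplicate at a single 25 uM concentration, with concentration-series follow-up for actives. Receptor source: adrenalectomized rat brain supernatant, cell-free. Radioligand displacement read by scintillation at 24 h, relative to DMSO baseline.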
# [12] = target: Androgen Receptor/SRC-1 Co-activator, AR (gene 367) (UniProt P10275); assay: OT_AR_ARSRC1_0960: Odyssey Thera (OT) 16-hour HEK293T Protein-Complementation Assay for Androgen Receptor/SRC-1 Co-activator (AID 2283353);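 further: actives raise the signal above DMSO so potency reflects increased AR and SRC-1 complex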
# Outline: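 Stable HEK293T line carries AR and SRC-1 each linked to a Venus fragment; chemicals are applied for 16 h, cells imaged at two wavelengths, and the 488 nm nucleus/cytoplasm ratio is taken as the signal, rising relative to DMSO.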
structure (smiles),measurement,setting,value
Cc1cc(O)c(Cl)c(C)c1Cl,AC50,[1],inconclusive: 0.233 µM
Oc1ccc(Cc2ccccc2O)cc1,outcome,[1],inactive
CCc1cc(Cc2cc(CC)cc(C(C)(C)C)c2O)c(O)c(C(C)(C)C)c1,AC50,[2],inconclusive: 25 µM
O=C(NS(=O)(=O)/C=C/c1cccs1)c1ccc(F)cc1Br,AC50,[3],inconclusive: 25 µM
same,AC50,[4],inconclusive: 50 µM
same,AC50,[5],inconclusive: 50 µM
CC1(C)C(=O)N(Br)C(=O)N1Br,outcome,[2],inactive
C#CCOC(=O)[C@@H](C)Oc1ccc(Oc2ncc(Cl)cc2F)cc1,AC50,[3],inconclusive: 0.238 µM
same,AC50,[6],inconclusive: 50 µM
same,outcome,[7],inactive
CCN(CC)C(=O)c1cccc(C)c1,AC50,[3],inconclusive: 25 µM
same,AC50,[4],inconclusive: 50 µM
CC(C)(C)CC(C)(C)c1ccc(O)c(-n2nc3ccccc3n2)c1,outcome,[1],inactive
Cc1oc(-c2ccccc2)nc1CCOc1cccc2c1ccn2CCC(=O)O,AC50,[3],inconclusive: 25 µM
same,outcome,[4],inactive
same,AC50,[8],inconclusive: 50 µM
same,AC50,[9],inconclusive: 4.96 µM
CCCCC(CC)CN1C(=O)C2C3C=CC(C3)C2C1=O (centres undefined),AC50,[1],inconclusive: 25 µM
CC(C)(C)c1cc(O)c(C(C)(C)C)cc1O,AC50,[3],inconclusive: 25 µM
same,AC50,[9],inconclusive: 12.4 µM
Cc1cc(=O)oc2cc(N(C)C)ccc12,AC50,[2],inconclusive: 15.4 µM
same,AC50,[8],inconclusive: 50 µM
c1ccc(OCCOc2ccccc2)cc1,AC50,[3],inconclusive: 1.12 µM
same,AC50,[9],inconclusive: 0.247 µM
Cc1nc(-c2ccccn2)ncc1C(=O)Nn1cc(C)c2cc(F)ccc21,AC50,[2],inconclusive: 0.188 µM
CC(C)(C)NC(=O)[C@H]1CC[C@H]2[C@@H]3CC[C@H]4NC(=O)C=C[C@]4(C)[C@H]3CC[C@]12C,AC50,[10],active: 75 µM
CN[C@H]1CC[C@@H](c2ccc(Cl)c(Cl)c2)c2ccc(S(N)(=O)=O)cc21,AC50,[7],inconclusive: 50 µM
COC(OC)(C(=O)c1ccccc1)c1ccccc1,AC50,[11],inconclusive: 25 µM
Nc1nc(N)c2nc(CNc3ccc(C(=O)N[C@@H](CCC(=O)O)C(=O)O)cc3)cnc2n1,outcome,[4],inactive
CCCc1ccccc1,AC50,[7],inconclusive: 50 µM
CCSC(=O)N(CC(C)C)CC(C)C,outcome,[11],inactive
CN(C)C=O,AC50,[11],inconclusive: 5.84 µM
CCOc1cccc(-n2cc(C(=O)N3CCN(c4cc(C(=O)O)c5ccccc5c4)CC3)nc2-c2ccc(C)cc2)c1,outcome,[5],inactive
same,outcome,[9],inactive
Nc1cccc2c(N)cccc12,AC50,[12],inconclusive: 50 µM
same,AC50,[5],inconclusive: 50 µM
same,AC50,[9],inconclusive: 4.96 µM
CCOC(=O)C1CC(=O)C(=C(O)C2CC2)C(=O)C1 (centres undefined),AC50,[4],inconclusive: 50 µM
same,AC50,[8],inconclusive: 50 µM
CC(C=O)Cc1ccc(C(C)(C)C)cc1 (centres undefined),AC50,[12],inconclusive: 50 µM
O=S(=O)(O)c1ccc(N=Nc2c(O)ccc3ccccc23)cc1,AC50,[4],inconclusive: 50 µM
same,AC50,[8],inconclusive: 50 µM
C1N2CN3CN1CN(C2)C3,AC50,[5],inconclusive: 51 µM
CC(=O)OC/C=C(C)/C=C/C=C(C)/C=C/C1=C(C)CCCC1(C)C,AC50,[4],inconclusive: 50 µM
same,outcome,[8],inactive
Cc1c(C(=O)c2c[nH]n(C)c2=O)ccc(S(C)(=O)=O)c1C1=NOCC1,outcome,[4],inactive
same,AC50,[5],inconclusive: 21.5 µM
CCC(C)C1CCCCC1=O (centres undefined),AC50,[4],inconclusive: 50 µM
same,outcome,[8],inactive
COC(=O)c1cccc(C(=O)OC)c1,AC50,[4],inconclusive: 50 µM
same,AC50,[8],inconclusive: 50 µM
CC(=O)O[C@@H]1CC2CCC1(C)C2(C)C (some centres undefined),AC50,[5],inconclusive: 50 µM
same,AC50,[8],inconclusive: 50 µM
same,AC50,[9],inconclusive: 25 µM
CC(=O)N(C)C,AC50,[5],inconclusive: 50 µM
CC(C)CCCC(C)(C)O,AC50,[4],inconclusive: 50 µM
same,AC50,[8],inconclusive: 50 µM
CCCC[N+](C)(CCCC)CCCC,AC50,[4],inconclusive: 49.2 µM
OCC1CCCO1 (centres undefined),outcome,[4],inactive
same,AC50,[5],inconclusive: 50 µM
COC(=O)c1ccccc1C,outcome,[4],inactive
same,outcome,[7],inactive
same,AC50,[8],inconclusive: 50 µM
CCCCCCCCCCO[C@@H]1O[C@H](CO)[C@@H](O)[C@H](O)[C@H]1O,AC50,[4],inconclusive: 50 µM
same,AC50,[9],inconclusive: 25 µM
CC(=O)OC(C)c1ccccc1 (centres undefined),outcome,[4],inactive
CC1COC(=O)O1 (centres undefined),outcome,[4],inactive
same,AC50,[8],inconclusive: 50 µM
Cc1occc1C(=O)Nc1ccc(C(=O)N2CCC(F)(F)/C(=C\C(=O)N3CCC(N4CCCCC4)CC3)c3ccccc32)cc1,AC50,[4],active: 26.9 µM

# Looked up one by one from above, four records:
structure (smiles),measurement,setting,value
CCC(C)C1CCCCC1=O (centres undefined),outcome,[8],inactive
same,AC50,[4],inconclusive: 50 µM
CC(C)(C)NC(=O)[C@H]1CC[C@H]2[C@@H]3CC[C@H]4NC(=O)C=C[C@]4(C)[C@H]3CC[C@]12C,AC50,[10],active: 75 µM
CCCCCCCCCCO[C@@H]1O[C@H](CO)[C@@H](O)[C@H](O)[C@H]1O,AC50,[9],inconclusive: 25 µM
